The values below come from publication PMC5746549.

Protein sequences, listed by entry. Tags and fused reporters are not part of them. Lines headed by an entry give the natural chain unless they say otherwise; changes in a name come on top.
UniProt P10288: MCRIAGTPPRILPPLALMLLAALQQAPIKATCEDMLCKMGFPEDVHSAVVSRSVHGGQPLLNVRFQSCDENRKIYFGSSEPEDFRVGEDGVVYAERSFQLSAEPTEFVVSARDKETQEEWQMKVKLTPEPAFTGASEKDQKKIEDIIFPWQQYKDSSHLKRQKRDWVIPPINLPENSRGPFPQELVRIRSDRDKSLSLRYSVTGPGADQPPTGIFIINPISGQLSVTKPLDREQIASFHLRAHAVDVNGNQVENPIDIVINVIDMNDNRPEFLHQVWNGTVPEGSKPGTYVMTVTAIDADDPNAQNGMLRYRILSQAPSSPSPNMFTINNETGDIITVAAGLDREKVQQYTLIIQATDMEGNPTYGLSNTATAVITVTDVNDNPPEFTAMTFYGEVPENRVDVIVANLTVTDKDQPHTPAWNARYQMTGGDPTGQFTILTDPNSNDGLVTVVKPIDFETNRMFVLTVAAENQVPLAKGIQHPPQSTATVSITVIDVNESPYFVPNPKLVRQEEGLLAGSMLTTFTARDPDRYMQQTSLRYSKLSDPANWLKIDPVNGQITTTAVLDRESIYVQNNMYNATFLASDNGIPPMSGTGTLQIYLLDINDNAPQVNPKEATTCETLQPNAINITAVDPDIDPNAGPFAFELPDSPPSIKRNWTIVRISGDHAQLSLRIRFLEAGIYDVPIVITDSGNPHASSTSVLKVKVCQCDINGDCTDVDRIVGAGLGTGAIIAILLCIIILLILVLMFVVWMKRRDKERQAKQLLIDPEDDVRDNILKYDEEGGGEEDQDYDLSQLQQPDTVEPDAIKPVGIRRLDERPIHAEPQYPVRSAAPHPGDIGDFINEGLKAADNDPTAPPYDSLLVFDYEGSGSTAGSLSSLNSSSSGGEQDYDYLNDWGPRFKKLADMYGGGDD
UniProt Q9IA31: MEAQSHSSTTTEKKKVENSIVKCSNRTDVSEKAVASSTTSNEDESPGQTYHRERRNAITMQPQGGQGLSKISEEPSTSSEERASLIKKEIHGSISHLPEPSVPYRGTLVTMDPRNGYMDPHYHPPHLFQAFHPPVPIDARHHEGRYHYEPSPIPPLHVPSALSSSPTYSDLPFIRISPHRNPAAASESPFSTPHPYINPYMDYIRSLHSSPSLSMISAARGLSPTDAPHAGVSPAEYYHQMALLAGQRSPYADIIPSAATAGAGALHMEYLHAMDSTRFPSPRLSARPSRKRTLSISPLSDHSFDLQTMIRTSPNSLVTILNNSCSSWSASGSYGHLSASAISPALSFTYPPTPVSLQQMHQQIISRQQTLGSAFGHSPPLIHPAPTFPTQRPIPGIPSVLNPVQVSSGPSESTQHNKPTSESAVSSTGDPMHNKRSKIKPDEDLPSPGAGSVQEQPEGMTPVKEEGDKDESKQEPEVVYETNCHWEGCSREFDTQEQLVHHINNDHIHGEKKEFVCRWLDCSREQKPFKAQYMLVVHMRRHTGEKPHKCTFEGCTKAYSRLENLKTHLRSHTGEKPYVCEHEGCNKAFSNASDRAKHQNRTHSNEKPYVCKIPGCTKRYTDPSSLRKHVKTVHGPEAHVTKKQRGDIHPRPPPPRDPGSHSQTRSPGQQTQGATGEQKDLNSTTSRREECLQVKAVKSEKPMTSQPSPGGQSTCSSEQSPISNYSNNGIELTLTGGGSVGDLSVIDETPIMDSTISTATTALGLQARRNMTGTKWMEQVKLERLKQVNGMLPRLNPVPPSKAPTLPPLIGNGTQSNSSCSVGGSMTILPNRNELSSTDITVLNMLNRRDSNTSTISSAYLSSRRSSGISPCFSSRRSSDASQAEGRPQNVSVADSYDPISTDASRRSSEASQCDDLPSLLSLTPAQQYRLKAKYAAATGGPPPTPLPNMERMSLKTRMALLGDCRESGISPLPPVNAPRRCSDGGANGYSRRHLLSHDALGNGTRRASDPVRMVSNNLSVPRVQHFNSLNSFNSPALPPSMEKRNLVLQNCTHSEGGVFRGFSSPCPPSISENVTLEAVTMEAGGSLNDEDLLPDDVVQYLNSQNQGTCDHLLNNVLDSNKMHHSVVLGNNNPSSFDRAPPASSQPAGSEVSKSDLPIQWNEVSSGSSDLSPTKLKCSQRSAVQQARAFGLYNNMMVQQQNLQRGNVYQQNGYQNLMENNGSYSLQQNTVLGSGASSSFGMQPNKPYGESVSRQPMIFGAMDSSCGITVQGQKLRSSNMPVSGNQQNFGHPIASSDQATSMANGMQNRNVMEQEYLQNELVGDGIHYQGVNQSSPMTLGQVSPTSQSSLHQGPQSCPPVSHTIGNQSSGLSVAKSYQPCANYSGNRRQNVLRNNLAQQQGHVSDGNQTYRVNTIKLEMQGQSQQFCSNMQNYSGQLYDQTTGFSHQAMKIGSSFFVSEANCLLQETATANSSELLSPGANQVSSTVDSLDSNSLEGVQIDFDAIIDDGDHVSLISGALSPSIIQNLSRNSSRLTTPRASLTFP
UniProt Q62226: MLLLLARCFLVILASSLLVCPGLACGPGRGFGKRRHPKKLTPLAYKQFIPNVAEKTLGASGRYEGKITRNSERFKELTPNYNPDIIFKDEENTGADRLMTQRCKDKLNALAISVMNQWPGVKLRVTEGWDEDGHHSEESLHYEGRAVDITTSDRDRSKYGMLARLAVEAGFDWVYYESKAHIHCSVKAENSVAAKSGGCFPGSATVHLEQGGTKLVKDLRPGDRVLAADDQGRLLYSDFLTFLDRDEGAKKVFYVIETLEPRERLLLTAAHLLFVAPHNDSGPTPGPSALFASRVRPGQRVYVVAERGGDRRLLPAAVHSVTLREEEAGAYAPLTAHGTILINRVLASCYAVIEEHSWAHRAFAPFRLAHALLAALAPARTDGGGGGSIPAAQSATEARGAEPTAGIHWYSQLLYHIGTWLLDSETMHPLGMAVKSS

These are yes or no findings as the source states them, for the method shown. For some assays here: In cells and extracts the contact can be indirect. For some assays here: Binding can be weak; no strength is given. For some assays here: Sequences can lack the tags named with a protein.

For assay [1], the target named is T1, endogenous Cdh7 of chick embryonic spinal cord (chick (endogenous in HH st. 17 chick embryo)) (UniProt Q90763).
T1 sequence: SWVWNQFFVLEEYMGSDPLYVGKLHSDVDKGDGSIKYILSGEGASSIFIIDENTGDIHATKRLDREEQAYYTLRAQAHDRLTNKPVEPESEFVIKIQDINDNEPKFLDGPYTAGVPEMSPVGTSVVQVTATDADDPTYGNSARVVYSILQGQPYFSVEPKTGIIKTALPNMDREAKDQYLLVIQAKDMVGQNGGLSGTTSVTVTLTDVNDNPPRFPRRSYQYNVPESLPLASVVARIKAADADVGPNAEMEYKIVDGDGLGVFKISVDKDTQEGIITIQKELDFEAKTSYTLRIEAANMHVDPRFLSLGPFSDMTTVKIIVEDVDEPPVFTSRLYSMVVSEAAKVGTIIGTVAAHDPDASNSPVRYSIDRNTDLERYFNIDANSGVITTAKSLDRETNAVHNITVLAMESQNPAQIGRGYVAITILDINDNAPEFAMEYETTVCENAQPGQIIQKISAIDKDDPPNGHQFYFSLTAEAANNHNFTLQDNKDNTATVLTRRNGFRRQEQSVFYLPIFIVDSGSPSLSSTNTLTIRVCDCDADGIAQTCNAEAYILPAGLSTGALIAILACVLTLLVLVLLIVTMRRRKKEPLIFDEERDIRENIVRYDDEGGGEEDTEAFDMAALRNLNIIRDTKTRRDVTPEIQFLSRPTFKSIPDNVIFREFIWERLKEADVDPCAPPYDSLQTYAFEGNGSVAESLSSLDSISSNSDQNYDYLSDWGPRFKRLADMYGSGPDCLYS
In words: co-IP; endogenous proteins in HH st. 17 chick embryo spinal cord lysates; immunoprecipitation with anti-Shh, anti-Cdh7 or anti-Ncdh mAbs.

Assay [2] has as its target endogenous Ncdh of chick embryonic spinal cord (chick (endogenous in HH st. 17 chick embryo)) (UniProt P10288). The description is as above.
Assay [3] concerns the target T2, Myc-tagged chick Cdh20 (cadherin-20), transiently expressed in NIH3T3 cells (chick) (UniProt Q8QGH3).
T2 sequence: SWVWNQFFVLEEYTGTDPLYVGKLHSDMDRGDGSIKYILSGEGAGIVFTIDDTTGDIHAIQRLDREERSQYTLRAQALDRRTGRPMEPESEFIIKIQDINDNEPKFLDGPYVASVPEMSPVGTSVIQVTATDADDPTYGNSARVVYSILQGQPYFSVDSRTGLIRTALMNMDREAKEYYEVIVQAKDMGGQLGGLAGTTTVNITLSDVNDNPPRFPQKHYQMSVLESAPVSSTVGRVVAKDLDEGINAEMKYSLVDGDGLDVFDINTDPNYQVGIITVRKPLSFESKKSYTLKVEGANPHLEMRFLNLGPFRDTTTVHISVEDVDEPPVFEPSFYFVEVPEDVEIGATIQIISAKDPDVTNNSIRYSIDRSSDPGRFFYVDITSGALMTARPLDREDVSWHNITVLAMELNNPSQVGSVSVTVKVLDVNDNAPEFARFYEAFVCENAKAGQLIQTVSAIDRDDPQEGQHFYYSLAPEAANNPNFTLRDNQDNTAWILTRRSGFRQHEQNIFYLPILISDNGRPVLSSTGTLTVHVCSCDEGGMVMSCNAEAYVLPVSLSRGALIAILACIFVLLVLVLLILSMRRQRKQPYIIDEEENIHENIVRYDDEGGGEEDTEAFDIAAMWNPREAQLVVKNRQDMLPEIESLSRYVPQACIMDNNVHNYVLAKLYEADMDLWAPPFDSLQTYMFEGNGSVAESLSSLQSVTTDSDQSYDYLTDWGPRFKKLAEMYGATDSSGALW
In words: co-IP; lysates of NIH3T3 cells transiently expressing chick Cdh7, Ncdh or Myc-tagged Cdh20 incubated with rN-Shh; immunoprecipitation with anti-Cdh7, anti-Ncdh or anti-Myc mAb; blot with anti-Shh pAb; only the binder purified.

Assay [4] addresses T3, chick Cdh7 (cadherin-7), transiently expressed in NIH3T3 cells (chick) (UniProt Q90763).
T3 sequence: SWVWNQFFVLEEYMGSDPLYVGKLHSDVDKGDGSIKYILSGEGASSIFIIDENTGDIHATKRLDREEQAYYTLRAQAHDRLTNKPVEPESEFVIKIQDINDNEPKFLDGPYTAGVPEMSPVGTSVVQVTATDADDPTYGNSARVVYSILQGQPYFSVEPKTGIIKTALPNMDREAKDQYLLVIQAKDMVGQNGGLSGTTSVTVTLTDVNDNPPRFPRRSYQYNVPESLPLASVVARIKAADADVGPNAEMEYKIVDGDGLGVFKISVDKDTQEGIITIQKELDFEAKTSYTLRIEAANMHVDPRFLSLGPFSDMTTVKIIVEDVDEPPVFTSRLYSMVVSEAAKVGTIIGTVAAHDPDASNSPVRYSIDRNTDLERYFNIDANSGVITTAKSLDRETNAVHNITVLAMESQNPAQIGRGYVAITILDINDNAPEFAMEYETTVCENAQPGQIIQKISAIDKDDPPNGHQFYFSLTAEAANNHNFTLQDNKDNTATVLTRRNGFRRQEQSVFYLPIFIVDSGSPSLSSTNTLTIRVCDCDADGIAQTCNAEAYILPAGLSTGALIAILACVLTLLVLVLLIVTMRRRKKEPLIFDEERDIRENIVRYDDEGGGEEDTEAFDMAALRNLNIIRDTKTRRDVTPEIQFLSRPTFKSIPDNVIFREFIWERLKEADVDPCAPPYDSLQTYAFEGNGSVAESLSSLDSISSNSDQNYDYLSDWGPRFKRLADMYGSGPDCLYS
The assay is described as above.

The target of assay [5] is Ncdh tested for binding of AP-tagged N-Shh (chick) (UniProt P10288). As to the kind of experiment: binding of AP-tagged ligand to cells (AP staining, saturation binding, Scatchard analysis); COS-7 cells expressing Cdh7 treated with conditioned medium from 293 cells expressing N-Shh-AP.
Assay [6] has as its target recombinant N-Shh. As to the kind of experiment: co-IP; lysates of NIH3T3 cells transiently expressing chick Cdh7 incubated with rN-Shh; immunoprecipitation with anti-Shh mAb; blot with anti-Cdh7 mAb; only the target purified.
Assay [7] addresses recombinant N-Shh. As to the kind of experiment: co-IP; lysates of COS-7 cells transiently expressing Myc-tagged Cdh7 constructs incubated with rN-Shh; pull-down with anti-Shh mAb; blot with anti-Myc pAb; only the target purified.
For assay [8], the target named is endogenous N-Shh of chick embryonic spinal cord (chick (endogenous in HH st. 17 chick embryo)). In words: co-IP; endogenous proteins in HH st. 17 chick embryo spinal cord lysates; immunoprecipitation with anti-Shh, anti-Cdh7 or anti-Ncdh mAbs.

As to “endogenous N-Shh of chick embryonic spinal cord (ligand)”, the binding result in assay [1] is “binds”.

As for “endogenous Gli3FL of chick embryonic spinal cord (from UniProt Q9IA31 1-1544)”, the binding result in assay [2] is reported as “no binding”.

As to recombinant N-Shh (ligand), the binding entry is reported as “no binding” in assay [3] and “binds” in assay [4].

Turning to “N-Shh tagged with alkaline phosphatase (from UniProt Q62226) (ligand)”, the binding entry in assay [5] is “no binding”.

B1: chick Cdh7 (cadherin-7), transiently expressed in NIH3T3 cells (receptor, UniProt Q90763 48-785)
chain: SWVWNQFFVLEEYMGSDPLYVGKLHSDVDKGDGSIKYILSGEGASSIFIIDENTGDIHATKRLDREEQAYYTLRAQAHDRLTNKPVEPESEFVIKIQDINDNEPKFLDGPYTAGVPEMSPVGTSVVQVTATDADDPTYGNSARVVYSILQGQPYFSVEPKTGIIKTALPNMDREAKDQYLLVIQAKDMVGQNGGLSGTTSVTVTLTDVNDNPPRFPRRSYQYNVPESLPLASVVARIKAADADVGPNAEMEYKIVDGDGLGVFKISVDKDTQEGIITIQKELDFEAKTSYTLRIEAANMHVDPRFLSLGPFSDMTTVKIIVEDVDEPPVFTSRLYSMVVSEAAKVGTIIGTVAAHDPDASNSPVRYSIDRNTDLERYFNIDANSGVITTAKSLDRETNAVHNITVLAMESQNPAQIGRGYVAITILDINDNAPEFAMEYETTVCENAQPGQIIQKISAIDKDDPPNGHQFYFSLTAEAANNHNFTLQDNKDNTATVLTRRNGFRRQEQSVFYLPIFIVDSGSPSLSSTNTLTIRVCDCDADGIAQTCNAEAYILPAGLSTGALIAILACVLTLLVLVLLIVTMRRRKKEPLIFDEERDIRENIVRYDDEGGGEEDTEAFDMAALRNLNIIRDTKTRRDVTPEIQFLSRPTFKSIPDNVIFREFIWERLKEADVDPCAPPYDSLQTYAFEGNGSVAESLSSLDSISSNSDQNYDYLSDWGPRFKRLADMYGSGPDCLYS
With B1, in the assay with recombinant N-Shh [6], the binding result is “binds”.

B2: Myc-tagged Cdh7 full-length, transiently expressed in COS-7 cells (receptor, UniProt Q90763 48-785)
chain: SWVWNQFFVLEEYMGSDPLYVGKLHSDVDKGDGSIKYILSGEGASSIFIIDENTGDIHATKRLDREEQAYYTLRAQAHDRLTNKPVEPESEFVIKIQDINDNEPKFLDGPYTAGVPEMSPVGTSVVQVTATDADDPTYGNSARVVYSILQGQPYFSVEPKTGIIKTALPNMDREAKDQYLLVIQAKDMVGQNGGLSGTTSVTVTLTDVNDNPPRFPRRSYQYNVPESLPLASVVARIKAADADVGPNAEMEYKIVDGDGLGVFKISVDKDTQEGIITIQKELDFEAKTSYTLRIEAANMHVDPRFLSLGPFSDMTTVKIIVEDVDEPPVFTSRLYSMVVSEAAKVGTIIGTVAAHDPDASNSPVRYSIDRNTDLERYFNIDANSGVITTAKSLDRETNAVHNITVLAMESQNPAQIGRGYVAITILDINDNAPEFAMEYETTVCENAQPGQIIQKISAIDKDDPPNGHQFYFSLTAEAANNHNFTLQDNKDNTATVLTRRNGFRRQEQSVFYLPIFIVDSGSPSLSSTNTLTIRVCDCDADGIAQTCNAEAYILPAGLSTGALIAILACVLTLLVLVLLIVTMRRRKKEPLIFDEERDIRENIVRYDDEGGGEEDTEAFDMAALRNLNIIRDTKTRRDVTPEIQFLSRPTFKSIPDNVIFREFIWERLKEADVDPCAPPYDSLQTYAFEGNGSVAESLSSLDSISSNSDQNYDYLSDWGPRFKRLADMYGSGPDCLYS
For the molecule B2, the binding result in the assay with recombinant N-Shh [7] is “binds”.

B3: endogenous Cdh7 of chick embryonic spinal cord (receptor, UniProt Q90763 48-785)
chain: SWVWNQFFVLEEYMGSDPLYVGKLHSDVDKGDGSIKYILSGEGASSIFIIDENTGDIHATKRLDREEQAYYTLRAQAHDRLTNKPVEPESEFVIKIQDINDNEPKFLDGPYTAGVPEMSPVGTSVVQVTATDADDPTYGNSARVVYSILQGQPYFSVEPKTGIIKTALPNMDREAKDQYLLVIQAKDMVGQNGGLSGTTSVTVTLTDVNDNPPRFPRRSYQYNVPESLPLASVVARIKAADADVGPNAEMEYKIVDGDGLGVFKISVDKDTQEGIITIQKELDFEAKTSYTLRIEAANMHVDPRFLSLGPFSDMTTVKIIVEDVDEPPVFTSRLYSMVVSEAAKVGTIIGTVAAHDPDASNSPVRYSIDRNTDLERYFNIDANSGVITTAKSLDRETNAVHNITVLAMESQNPAQIGRGYVAITILDINDNAPEFAMEYETTVCENAQPGQIIQKISAIDKDDPPNGHQFYFSLTAEAANNHNFTLQDNKDNTATVLTRRNGFRRQEQSVFYLPIFIVDSGSPSLSSTNTLTIRVCDCDADGIAQTCNAEAYILPAGLSTGALIAILACVLTLLVLVLLIVTMRRRKKEPLIFDEERDIRENIVRYDDEGGGEEDTEAFDMAALRNLNIIRDTKTRRDVTPEIQFLSRPTFKSIPDNVIFREFIWERLKEADVDPCAPPYDSLQTYAFEGNGSVAESLSSLDSISSNSDQNYDYLSDWGPRFKRLADMYGSGPDCLYS
Regarding B3, the binding result in assay [8] is “binds”.
